Source: doi:10.1101/2024.05.31.596772
These are yes or no findings as the source states them, for the method shown. In cells and extracts the contact can be indirect. Some entries that bind do so weakly or less than the wild type. Each block holds one molecule with its values, some of them ahead of it.

Sequences of proteins named here, by UniProt entry; tags and fusion partners are left off.
UniProt Q5T5Y3: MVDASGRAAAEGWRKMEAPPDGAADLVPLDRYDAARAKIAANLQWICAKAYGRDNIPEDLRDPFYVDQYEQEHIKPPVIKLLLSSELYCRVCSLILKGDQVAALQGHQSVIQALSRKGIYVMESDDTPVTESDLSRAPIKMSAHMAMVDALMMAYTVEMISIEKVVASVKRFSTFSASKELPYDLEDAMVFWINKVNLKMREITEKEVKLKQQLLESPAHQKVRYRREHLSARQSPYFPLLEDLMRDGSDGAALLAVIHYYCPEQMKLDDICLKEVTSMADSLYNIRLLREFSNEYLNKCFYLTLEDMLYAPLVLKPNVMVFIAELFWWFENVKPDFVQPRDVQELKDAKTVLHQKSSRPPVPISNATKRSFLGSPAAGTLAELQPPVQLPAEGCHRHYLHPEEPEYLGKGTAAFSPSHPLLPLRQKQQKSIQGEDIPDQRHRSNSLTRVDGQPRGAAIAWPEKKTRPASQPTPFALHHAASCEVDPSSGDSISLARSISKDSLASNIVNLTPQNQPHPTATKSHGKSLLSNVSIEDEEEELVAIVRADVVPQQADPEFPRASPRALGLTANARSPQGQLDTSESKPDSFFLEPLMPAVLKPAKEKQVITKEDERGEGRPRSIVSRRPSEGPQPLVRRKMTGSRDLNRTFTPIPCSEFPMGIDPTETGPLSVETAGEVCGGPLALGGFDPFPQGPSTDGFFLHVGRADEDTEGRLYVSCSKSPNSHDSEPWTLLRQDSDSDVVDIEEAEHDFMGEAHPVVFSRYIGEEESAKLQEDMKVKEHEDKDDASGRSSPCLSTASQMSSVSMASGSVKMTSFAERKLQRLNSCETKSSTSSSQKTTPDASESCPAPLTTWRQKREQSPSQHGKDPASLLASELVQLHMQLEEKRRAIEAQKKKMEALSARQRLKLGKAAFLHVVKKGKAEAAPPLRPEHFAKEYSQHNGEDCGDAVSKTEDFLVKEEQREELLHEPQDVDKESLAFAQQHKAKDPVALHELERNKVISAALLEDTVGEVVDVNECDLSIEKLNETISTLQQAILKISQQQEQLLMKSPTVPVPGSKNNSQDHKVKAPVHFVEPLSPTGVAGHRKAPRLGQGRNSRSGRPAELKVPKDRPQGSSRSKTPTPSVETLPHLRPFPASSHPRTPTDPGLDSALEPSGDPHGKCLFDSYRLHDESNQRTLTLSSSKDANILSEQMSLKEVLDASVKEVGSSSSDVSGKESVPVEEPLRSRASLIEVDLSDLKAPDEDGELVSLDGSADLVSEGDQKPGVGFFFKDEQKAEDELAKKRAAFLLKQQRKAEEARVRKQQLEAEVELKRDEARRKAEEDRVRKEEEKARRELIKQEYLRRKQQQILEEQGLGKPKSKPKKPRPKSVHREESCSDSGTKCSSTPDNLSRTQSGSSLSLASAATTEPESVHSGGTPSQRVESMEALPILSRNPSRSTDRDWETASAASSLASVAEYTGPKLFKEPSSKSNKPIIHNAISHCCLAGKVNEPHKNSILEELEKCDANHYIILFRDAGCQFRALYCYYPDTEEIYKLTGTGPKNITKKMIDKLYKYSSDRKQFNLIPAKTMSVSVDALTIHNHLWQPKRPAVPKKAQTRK

Assays:
[1] = target: CAMSAP1 (UniProt Q5T5Y3); assay: co-IP + SEC-MALS
[2] = target: CAMSAP2 (UniProt Q08AD1); assay: co-IP + SEC-MALS
[3] = target: CAMSAP3 944F (UniProt Q80VC9); assay: co-IP
[4] = target: CAMSAP3 944F LL2AA (UniProt Q80VC9); assay: co-IP

Molecule: CAMSAP1 (from UniProt Q5T5Y3 1-1602)
binding [1]: binds

B1: CAMSAP2 (protein, UniProt Q08AD1 1-1489)
chain: MGDAADPREMRKTFIVPAIKPFDHYDFSRAKIACNLAWLVAKAFGTENVPEELQEPFYTDQYDQEHIKPPVVNLLLSAELYCRAGSLILKSDAAKPLLGHDAVIQALAQKGLYVTDQEKLVTERDLHKKPIQMSAHLAMIDTLMMAYTVEMVSIEKVIACAQQYSAFFQATDLPYDIEDAVMYWINKVNEHLKDIMEQEQKLKEHHTVEAPGGQKSPSKWFWKLVPARYRKEQTLLKQLPCIPLVENLLKDGTDGCALAALIHFYCPDVVRLEDICLKETMSLADSLYNLQLIQEFCQEYLNQCCHFTLEDMLYAASSIKSNYLVFMAELFWWFEVVKPSFVQPRVVRPQGAEPVKDMPSIPVLNAAKRNVLDSSSDFPSSGEGATFTQSHHHLPSRYSRPQAHSSASGGIRRSSSMSYVDGFIGTWPKEKRSSVHGVSFDISFDKEDSVQRSTPNRGITRSISNEGLTLNNSHVSKHIRKNLSFKPINGEEEAESIEEELNIDSHSDLKSCVPLNTNELNSNENIHYKLPNGALQNRILLDEFGNQIETPSIEEALQIIHDTEKSPHTPQPDQIANGFFLHSQEMSILNSNIKLNQSSPDNVTDTKGALSPITDNTEVDTGIHVPSEDIPETMDEDSSLRDYTVSLDSDMDDASKFLQDYDIRTGNTREALSPCPSTVSTKSQPGSSASSSSGVKMTSFAEQKFRKLNHTDGKSSGSSSQKTTPEGSELNIPHVVAWAQIPEETGLPQGRDTTQLLASEMVHLRMKLEEKRRAIEAQKKKMEAAFTKQRQKMGRTAFLTVVKKKGDGISPLREEAAGAEDEKVYTDRAKEKESQKTDGQRSKSLADIKESMENPQAKWLKSPTTPIDPEKQWNLASPSEETLNEGEILEYTKSIEKLNSSLHFLQQEMQRLSLQQEMLMQMREQQSWVISPPQPSPQKQIRDFKPSKQAGLSSAIAPFSSDSPRPTHPSPQSSNRKSASFSVKSQRTPRPNELKITPLNRTLTPPRSVDSLPRLRRFSPSQVPIQTRSFVCFGDDGEPQLKESKPKEEVKKEELESKGTLEQRGHNPEEKEIKPFESTVSEVLSLPVTETVCLTPNEDQLNQPTEPPPKPVFPPTAPKNVNLIEVSLSDLKPPEKADVPVEKYDGESDKEQFDDDQKVCCGFFFKDDQKAENDMAMKRAALLEKRLRREKETQLRKQQLEAEMEHKKEETRRKTEEERQKKEDERARREFIRQEYMRRKQLKLMEDMDTVIKPRPQVVKQKKQRPKSIHRDHIESPKTPIKGPPVSSLSLASLNTGDNESVHSGKRTPRSESVEGFLSPSRCGSRNGEKDWENASTTSSVASGTEYTGPKLYKEPSAKSNKHIIQNALAHCCLAGKVNEGQKKKILEEMEKSDANNFLILFRDSGCQFRSLYTYCPETEEINKLTGIGPKSITKKMIEGLYKYNSDRKQFSHIPAKTLSASVDAITIHSHLWQTKRPVTPKKLLPTKA
binding [2]: binds

The next lines start with the values.

binding [3]: binds
B2: CAMSAP3 944F (domain or fragment, UniProt Q80VC9 944-1252)
chain: AFTTPVVASAAPVATLAPTTRAMAPAEEEVGPRRGDFTRLEYERRAQLKLMDDLDKVLRPRASGTGGPGRGGRRATRPRSGCCDDSALARSPARGLLGSRLSKVYSQSTLSLSTVANEAPNNLGVKRPTSRAPSPSGLMSPSRLPGSRERDWENGSNASSPASVPEYTGPRLYKEPSAKSNKFIIHNALSHCCLAGKVNEPQKNRILEEIEKSKANHFLILFRDSSCQFRALYTLSGETEELSRLAGYGPRTVTPAMVEGIYKYNSDRKRFTQIPAKTMSMSVDAFTIQGHLWQSKKPTTPKKGGGTPK

binding [4]: binds
B3: CAMSAP3 944F LL2AA (domain or fragment, UniProt Q80VC9 944-1252)
chain: AFTTPVVASAAPVATLAPTTRAMAPAEEEVGPRRGDFTRLEYERRAQLKAMDDADKVLRPRASGTGGPGRGGRRATRPRSGCCDDSALARSPARGLLGSRLSKVYSQSTLSLSTVANEAPNNLGVKRPTSRAPSPSGLMSPSRLPGSRERDWENGSNASSPASVPEYTGPRLYKEPSAKSNKFIIHNALSHCCLAGKVNEPQKNRILEEIEKSKANHFLILFRDSSCQFRALYTLSGETEELSRLAGYGPRTVTPAMVEGIYKYNSDRKRFTQIPAKTMSMSVDAFTIQGHLWQSKKPTTPKKGGGTPK
